According to patent US20080125405A1, “Composition for treating or preventing olfactory disorder” (Samsung Life Public Welfare Foundation Samsung Medical …, priority 2006, published 2008):
Where two headings read alike, the source gives them in different places.

Tested on: olfactory receptor cells
Settings: grade 0 to 4, higher = more regeneration, drug 10 mg/kg oral daily

**Q.** `CC(C)c1c(C(=O)Nc2ccccc2)c(-c2ccccc2)c(-c2ccc(F)cc2)n1CC[C@@H](O)C[C@@H](O)CC(=O)O` [atorvastatin] was tested. Which “average PGP 9.5 immunostaining grade” value (four days after 3-methylindole) did it give?
**A.** 0.64±0.51

**Q.** What about the “average PGP 9.5 immunostaining grade” value (fourteen days after 3-methylindole) of the same compound?
**A.** 2.42±1.38

**Q.** What about the “average PGP 9.5 immunostaining grade” value (seven days after 3-methylindole) of the same compound?
**A.** 2.46±1.12

**Q.** What about the “average PGP 9.5 immunostaining grade” value (twenty eight days after 3-methylindole) of the same compound?
**A.** 3.7±0.48
